PubChem BioAssay AID1159590 – NIAID | 2016
This is an unselected part of 756 reagents. Over the whole deposit, 128 (17%) were called active. 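Calls are two-sided: both reduced and increased p65 nuclear entry count as active.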 Unmarked entries are inactive. The numbers tell different reagents against one gene apart. Not given: the amount of reagent.

- Assay: 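Which core TLR signalling genes NF-kB activation by Pam3CSK4 depends on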
- System: mouse RAW264.7 macrophage reporter cells expressing GFP-p65 and a Tnf promoter-mCherry
- Knock-down reagent: single siRNA against mouse genes
- Time to read-out: 48 to 72 hours after siRNA transfection, then 40 minutes of ligand
- Conditions: Pam3CSK4 (TLR2/1 agonist) for 40 minutes before fixation; dose not given
- Detection: 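GFP-p65 nuclear to cytoplasmic intensity ratio from imaging, normalised per plate by median and MAD, given as robust z against negative controls, mean of replicates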
- Scale: p65 nuclear entry z-score: higher = more p65 moved into nuclei than in negative-control wells
- Call rule: In these data the active calls have p65 nuclear entry z-score, replicate mean at about -1.5 or lower, or at about 1.5 or higher
- Calls: active = strong change, up or down; inactive = little change

With knock-down of Ticam1 (GeneID 106759) #1, the screen gave p65 nuclear entry z-score, replicate mean -1.62 (active).
Ticam1 (GeneID 106759) #2 showed p65 nuclear entry z-score, replicate mean 0.237.
Knock-down of Ticam1 (GeneID 106759) #3 gave: p65 nuclear entry z-score, replicate mean -0.488.
After knock-down of Ticam1 (GeneID 106759) #4, the record shows p65 nuclear entry z-score, replicate mean -0.093.
For Ticam1 (GeneID 106759) #5, the values are p65 nuclear entry z-score, replicate mean 1.25.
Knock-down of Ticam1 (GeneID 106759) #6 came out at: p65 nuclear entry z-score, replicate mean 0.176.
Depletion of Irf5 (GeneID 27056) #1 came out at: p65 nuclear entry z-score, replicate mean -0.0169.
Depletion of Irf5 (GeneID 27056) #2 gave: p65 nuclear entry z-score, replicate mean -0.791.
For Irf5 (GeneID 27056) #3 the deposit lists p65 nuclear entry z-score, replicate mean -0.216.
Silencing of Irf5 (GeneID 27056) #4 gave: p65 nuclear entry z-score, replicate mean 0.163.
For Irf5 (GeneID 27056) #5 the deposit lists p65 nuclear entry z-score, replicate mean -0.767.
Knock-down of Irf5 (GeneID 27056) #6 resulted in: p65 nuclear entry z-score, replicate mean -2.73 (active).
Depletion of Ly86 (GeneID 17084) #1 resulted in: p65 nuclear entry z-score, replicate mean -0.421.
With knock-down of Ly86 (GeneID 17084) #2 the results were p65 nuclear entry z-score, replicate mean -1.47.
With knock-down of Ly86 (GeneID 17084) #3, the screen gave p65 nuclear entry z-score, replicate mean -0.129.
Against Ly86 (GeneID 17084) #4, the entry reads p65 nuclear entry z-score, replicate mean -0.188.
Ly86 (GeneID 17084) #5 gave p65 nuclear entry z-score, replicate mean 0.163.
Depletion of Ly86 (GeneID 17084) #6 came out at: p65 nuclear entry z-score, replicate mean -0.92.
Knock-down of Mapk9 (GeneID 26420) #1 came out at: p65 nuclear entry z-score, replicate mean 0.576.
With knock-down of Mapk9 (GeneID 26420) #2, the record shows p65 nuclear entry z-score, replicate mean 0.753.
Silencing of Mapk9 (GeneID 26420) #3 came out at: p65 nuclear entry z-score, replicate mean 0.332.
After knock-down of Mapk9 (GeneID 26420) #4 the results were p65 nuclear entry z-score, replicate mean 0.0097.
Silencing of Mapk9 (GeneID 26420) #5 gave: p65 nuclear entry z-score, replicate mean -1.12.
For Mapk9 (GeneID 26420) #6, the values are p65 nuclear entry z-score, replicate mean -1.07.
After knock-down of Mapk8 (GeneID 26419) #1 the results were p65 nuclear entry z-score, replicate mean 0.882.
Depletion of Mapk8 (GeneID 26419) #2 resulted in: p65 nuclear entry z-score, replicate mean -0.926.
For Mapk8 (GeneID 26419) #3, the entry reads p65 nuclear entry z-score, replicate mean 0.251.
Mapk8 (GeneID 26419) #4 gave p65 nuclear entry z-score, replicate mean -0.354.
Mapk8 (GeneID 26419) #5 showed p65 nuclear entry z-score, replicate mean -1.43.
Mapk8 (GeneID 26419) #6 scored p65 nuclear entry z-score, replicate mean -1.59 (active).
Depletion of Pik3ca (GeneID 18706) #1 gave: p65 nuclear entry z-score, replicate mean -0.504.
Depletion of Pik3ca (GeneID 18706) #2 gave: p65 nuclear entry z-score, replicate mean 0.019.
Against Pik3ca (GeneID 18706) #3 the deposit lists p65 nuclear entry z-score, replicate mean 0.26.
Knock-down of Pik3ca (GeneID 18706) #4 gave: p65 nuclear entry z-score, replicate mean -1.57 (active).
Pik3ca (GeneID 18706) #5 scored p65 nuclear entry z-score, replicate mean -0.644.
Depletion of Pik3ca (GeneID 18706) #6 came out at: p65 nuclear entry z-score, replicate mean -0.675.

Records listed so far whose gene name starts with T or t:
Ticam1 (GeneID 106759) #1 | p65 nuclear entry z-score, replicate mean = -1.62 (active)
Ticam1 (GeneID 106759) #2 | p65 nuclear entry z-score, replicate mean = 0.237
Ticam1 (GeneID 106759) #3 | p65 nuclear entry z-score, replicate mean = -0.488
Ticam1 (GeneID 106759) #4 | p65 nuclear entry z-score, replicate mean = -0.093
Ticam1 (GeneID 106759) #5 | p65 nuclear entry z-score, replicate mean = 1.25
Ticam1 (GeneID 106759) #6 | p65 nuclear entry z-score, replicate mean = 0.176
